# Taken from: PubChem BioAssay AID686938 (Drosophila RNAi Screening Center, 2013)
# Aim: 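Knock-downs reducing store-operated calcium influx in Drosophila cells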 (primary screen)
# System: Drosophila S2R+ cells
# Reagents: long dsRNA against Drosophila genes, about 0.25 µg dsRNA per well, roughly 10,000 cells
# Timing: 5 days of knock-down before the calcium assay
# Challenge: thapsigargin (SERCA pump blocker) to empty calcium stores; entry signal taken 4 min after adding it
# Read-out: 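Duplicate raw fluo-4 intensities per well from a plate reader, at rest and four minutes after thapsigargin emptied calcium stores; entry-to-rest ratio filled for only some wells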
# Scale: calcium entry signal: higher = stronger calcium signal after store depletion; resting calcium signal: higher = higher resting calcium signal
# Active means: 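Called when the plate z-score of the entry-to-rest ratio, mean of duplicates, falls below −3; wells with low overall dye signal (Fmax z below −2) or more than five off-targets excluded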
# Calls: active = strongly reduced calcium entry; inactive = no strong reduction
# The screen tested about 23,000 reagents; shown is a random part of those with a known target gene and a result. Of all reagents, 75 (0.33%) are marked active. 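Raw plate signals without normalisation; calls rest on plate z-scores that were not deposited; ratio present for only 364 wells.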 Entries without a mark were called inactive. Reagents against one gene are numbered here. Names joined by + are all predicted targets of the reagent. Not given: the dose of the treatment.
Target gene,reagent no.,"calcium entry signal, replicate 1 (fluorescence units)","calcium entry signal, replicate 2 (fluorescence units)","resting calcium signal, replicate 1 (fluorescence units)","resting calcium signal, replicate 2 (fluorescence units)"
CG42355 (GeneID 317969),1,2.89e7,2.87e7,1.58e7,1.42e7
Gbs-76A (GeneID 40102),1,3.96e7,4.52e7,1.88e7,2.83e7
CG32277 (GeneID 38393),1,2.39e7,3.58e7,1.31e7,1.62e7
CG30480 (GeneID 246640),1,2.59e7,3.93e7,1.39e7,1.66e7
gogo (GeneID 40225),1,1.89e7,3.24e7,1.18e7,1.63e7
gogo (GeneID 40225),2,2.46e7,4.54e7,1.22e7,1.79e7
par-6 (GeneID 32752),1,3.38e7,3.37e7,1.58e7,1.55e7
ken (GeneID 37785),1,2.10e7,,1.32e7,
ken (GeneID 37785),2,5.07e7,3.25e7,2.59e7,1.74e7
Gpdh3 (GeneID 42624),1,3.61e7,4.51e7,6.34e7,2.18e7
Pka-C1 (GeneID 34284),1,3.96e7,,1.92e7,
Pka-C1 (GeneID 34284),2,4.91e7,3.09e7,2.30e7,1.50e7
CG5404 (GeneID 41901),1,2.55e7,3.54e7,1.41e7,1.82e7
CG8788 (GeneID 35932),1,4.38e7,4.19e7,2.02e7,1.86e7
CG12581 (GeneID 40522),1,3.91e7,4.27e7,1.73e7,3.10e7
CG12581 (GeneID 40522),2,2.67e7,5.20e7,1.33e7,2.29e7
CG13066 (GeneID 50270),1,3.73e7,6.33e7,1.95e7,2.58e7
CG8927 (GeneID 41964),1,3.50e7,6.43e7,1.91e7,7.94e7
SF2 (GeneID 53443),1,4.88e7,7.58e7,2.40e7,7.98e7
CG7903 (GeneID 43554),1,4.20e7,5.52e7,2.20e7,2.51e7
wts (GeneID 43651),1,2.69e7,4.56e7,1.79e7,2.36e7
wts (GeneID 43651),2,4.93e7,3.43e7,2.62e7,1.47e7
CG33296 (GeneID 2768941),1,3.32e7,4.20e7,1.78e7,1.72e7
CG43345 + CG43346,1,3.58e7,,1.72e7,
l(2)k05819 (GeneID 33644),1,3.73e7,,2.26e7,
MED8 (GeneID 37305),1,4.67e7,4.05e7,1.90e7,1.98e7
CheB93a (GeneID 42540),1,4.20e7,3.60e7,5.28e7,1.66e7
CG15126 (GeneID 50202),1,5.50e7,4.42e7,2.40e7,2.12e7
CG13606 (GeneID 42873),1,4.51e7,4.50e7,2.28e7,1.91e7
Ir48b (GeneID 36254),1,3.97e7,4.71e7,1.94e7,1.97e7
Pdp1 (GeneID 45588),1,2.68e7,3.62e7,1.61e7,2.08e7
Pdp1 (GeneID 45588),2,2.97e7,4.75e7,2.37e7,2.52e7
Pdp1 (GeneID 45588),3,2.77e7,4.24e7,1.36e7,1.85e7
Pdp1 (GeneID 45588),4,5.08e7,2.85e7,2.36e7,1.18e7
Oatp33Ea (GeneID 34660),1,3.07e7,,1.64e7,
Rpi (GeneID 246599),1,3.55e7,3.31e7,1.90e7,1.59e7
CG4839 (GeneID 34348),1,5.12e7,,2.66e7,
CG4839 (GeneID 34348),2,2.38e7,3.81e7,1.12e7,1.68e7
gskt (GeneID 318552),1,4.28e7,5.05e7,1.96e7,1.95e7
ATPCL (GeneID 36760),1,3.88e7,5.22e7,1.80e7,2.34e7

In a second layout: entries from further up.
Target gene	reagent no.	calcium entry signal, replicate 1 (fluorescence units)	calcium entry signal, replicate 2 (fluorescence units)	resting calcium signal, replicate 1 (fluorescence units)	resting calcium signal, replicate 2 (fluorescence units)
CG13606 (GeneID 42873)	1	4.51e7	4.50e7	2.28e7	1.91e7
Ir48b (GeneID 36254)	1	3.97e7	4.71e7	1.94e7	1.97e7
Pdp1 (GeneID 45588)	1	2.68e7	3.62e7	1.61e7	2.08e7
Pdp1 (GeneID 45588)	2	2.97e7	4.75e7	2.37e7	2.52e7
Pdp1 (GeneID 45588)	3	2.77e7	4.24e7	1.36e7	1.85e7
Pdp1 (GeneID 45588)	4	5.08e7	2.85e7	2.36e7	1.18e7
